{"source": "PubChem BioAssay AID1159618 (Peter MacCallum Cancer Centre, 2016)", "purpose": "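Contrast migration regulators of blood versus lymphatic endothelial cells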 (follow-up of hits)", "cells": "human HMBEC blood microvascular and HDLEC dermal lymphatic endothelial cells", "knock-down reagent": "siRNA pool against human genes, 40 nM", "read-out": "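Scratch wounds imaged automatically; migrated area scaled to mock-transfected mean and averaged across two replicates, with per-well nuclei counts recorded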", "reading the numbers": "migration vs mock, HMBEC and migration vs mock, HDLEC: higher = more migration into the scratch", "rule for the call": "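a knock-down counts as active if migrated area in either cell type is under 0.65 of the mock level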", "meaning of the calls": "active = migration impaired; inactive = no change", "note": "Here is one part, drawn at random, of 153 reagents tested. 111 of all reagents (73%) were called active. 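Migration not corrected for cell number; some knock-downs also lowered nuclei counts, so reduced closure may partly reflect fewer cells.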 A number with no mark means an inactive call. Further read-outs or replicates are left out here. No sequences are given here. Not stated in the record: the time to read-out."}
{"gene symbol": "PLPP1", "cell type with impaired migration": "no change in either cell type", "migration vs mock, HMBEC": 1.1, "migration vs mock, HDLEC": 0.928}
{"gene symbol": "PDGFRB", "cell type with impaired migration": "impaired in both blood and lymphatic cells (active)", "migration vs mock, HMBEC": 0.621, "migration vs mock, HDLEC": 0.534}
{"gene symbol": "TPST2", "cell type with impaired migration": "impaired in both blood and lymphatic cells (active)", "migration vs mock, HMBEC": 0.404, "migration vs mock, HDLEC": 0.607}
{"gene symbol": "FLCN", "cell type with impaired migration": "impaired in both blood and lymphatic cells (active)", "migration vs mock, HMBEC": 0.374, "migration vs mock, HDLEC": 0.65}
{"gene symbol": "CNKSR1", "cell type with impaired migration": "impaired only in blood endothelial cells (active)", "migration vs mock, HMBEC": 0.335, "migration vs mock, HDLEC": 0.692}
{"gene symbol": "ANGPT2", "cell type with impaired migration": "impaired in both blood and lymphatic cells (active)", "migration vs mock, HMBEC": 0.534, "migration vs mock, HDLEC": 0.462}
{"gene symbol": "CRCT1", "cell type with impaired migration": "impaired only in blood endothelial cells (active)", "migration vs mock, HMBEC": 0.636, "migration vs mock, HDLEC": 0.734}
{"gene symbol": "SPICE1", "cell type with impaired migration": "impaired in both blood and lymphatic cells (active)", "migration vs mock, HMBEC": 0.296, "migration vs mock, HDLEC": 0.625}

Active calls (from the list above):
{"gene symbol": "PDGFRB", "cell type with impaired migration": "impaired in both blood and lymphatic cells (active)", "migration vs mock, HMBEC": 0.621, "migration vs mock, HDLEC": 0.534}
{"gene symbol": "TPST2", "cell type with impaired migration": "impaired in both blood and lymphatic cells (active)", "migration vs mock, HMBEC": 0.404, "migration vs mock, HDLEC": 0.607}
{"gene symbol": "FLCN", "cell type with impaired migration": "impaired in both blood and lymphatic cells (active)", "migration vs mock, HMBEC": 0.374, "migration vs mock, HDLEC": 0.65}
{"gene symbol": "CNKSR1", "cell type with impaired migration": "impaired only in blood endothelial cells (active)", "migration vs mock, HMBEC": 0.335, "migration vs mock, HDLEC": 0.692}
{"gene symbol": "ANGPT2", "cell type with impaired migration": "impaired in both blood and lymphatic cells (active)", "migration vs mock, HMBEC": 0.534, "migration vs mock, HDLEC": 0.462}
{"gene symbol": "CRCT1", "cell type with impaired migration": "impaired only in blood endothelial cells (active)", "migration vs mock, HMBEC": 0.636, "migration vs mock, HDLEC": 0.734}
{"gene symbol": "SPICE1", "cell type with impaired migration": "impaired in both blood and lymphatic cells (active)", "migration vs mock, HMBEC": 0.296, "migration vs mock, HDLEC": 0.625}

Next entries follow:
{"gene symbol": "DBP", "cell type with impaired migration": "impaired in both blood and lymphatic cells (active)", "migration vs mock, HMBEC": 0.567, "migration vs mock, HDLEC": 0.432}
{"gene symbol": "NFKBIZ", "cell type with impaired migration": "impaired in both blood and lymphatic cells (active)", "migration vs mock, HMBEC": 0.532, "migration vs mock, HDLEC": 0.619}
{"gene symbol": "CHSY3", "cell type with impaired migration": "no change in either cell type", "migration vs mock, HMBEC": 0.802, "migration vs mock, HDLEC": 0.762}
{"gene symbol": "PPP1CA", "cell type with impaired migration": "impaired only in lymphatic endothelial cells (active)", "migration vs mock, HMBEC": 0.774, "migration vs mock, HDLEC": 0.623}
{"gene symbol": "CLCN7", "cell type with impaired migration": "impaired in both blood and lymphatic cells (active)", "migration vs mock, HMBEC": 0.195, "migration vs mock, HDLEC": 0.358}
{"gene symbol": "JUN", "cell type with impaired migration": "impaired in both blood and lymphatic cells (active)", "migration vs mock, HMBEC": 0.451, "migration vs mock, HDLEC": 0.632}
{"gene symbol": "SMURF2", "cell type with impaired migration": "impaired in both blood and lymphatic cells (active)", "migration vs mock, HMBEC": 0.548, "migration vs mock, HDLEC": 0.529}
{"gene symbol": "SETD2", "cell type with impaired migration": "no change in either cell type", "migration vs mock, HMBEC": 0.939, "migration vs mock, HDLEC": 0.791}
{"gene symbol": "TUBA1B", "cell type with impaired migration": "impaired only in blood endothelial cells (active)", "migration vs mock, HMBEC": 0.408, "migration vs mock, HDLEC": 0.678}
{"gene symbol": "FBXO4", "cell type with impaired migration": "no change in either cell type", "migration vs mock, HMBEC": 0.92, "migration vs mock, HDLEC": 0.69}
{"gene symbol": "KCNQ2", "cell type with impaired migration": "impaired only in blood endothelial cells (active)", "migration vs mock, HMBEC": 0.461, "migration vs mock, HDLEC": 0.751}
